IC50 data for one molecule are collected here from paper PMC3093745 (ACS Medicinal Chemistry Letters, 2011).

The data set is described as follows: Cytotoxicity in MCF7 breast cancer cell line. The data set is classed as cell-based. Particulars: human, MCF7 breast cancer cells.

Each structure is given as a SMILES string.

With `O=C(CCCCCCC(=O)Nc1ccccc1)NO` [Compound 1, suberoylanilide hydroxamic acid], 730 ± 380 nM corresponded to half-maximal inhibition (IC50).
